About 25 (0.01%) of roughly 200,000 compounds were called active. The inconclusive results got no clear call from the source; some entries with a clear call stand among them for comparison. Calls come from the whole dose curve; as a rule, active = well fitted inhibition curve with a large enough effect in the signal ratio, with a control signal flat (not every such curve was filed as active); inconclusive = small, poorly fitted or top-dose-only effect, or effect the other way, or a change in a side signal; inactive = flat fitted curve, though single readings scatter; the % refers to the signal ratio. Where the call is inconclusive, the potency comes from a doubtful curve fit.
Assay: qHTS Assay for Modulators of Lamin A Splicing
Settings: HeLa LMNA splicing GFP/RFP minigene ratio, 48 h; ratio change, negative = inhibition: at 46.1 µM (top of the series) unless noted
Outline: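 Read-out is the ratio of GFP to DsRed2 object intensity, acquired by 488 nm laser-scanning cytometry on HeLa lamin A-EGFP minigene reporter cells. Compound incubation 48 hrs at 37 °C in Opti-MEM with 2% FBS; DMSO 0.5% final.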
% is set by controls: 0 for no effect and ±100 for the full control effect; potency is the fitted concentration of half-maximal effect.

| SMILES | ratio change, negative = inhibition | Potency |
| --- | --- | --- |
| CCCCOc1ccc(C2NC(=O)NC(C)=C2C(C)=O)cc1OCC (stereo unspecified) | inconclusive: 19.8% [at 46 µM] | – |
| O=C(OCCN1CCOCC1)C(c1ccccc1)c1ccccc1 | inactive: 1.46% | – |
| CCOc1cccc(-c2cc(-c3n[nH]c(=S)n3CC)c3ccccc3n2)c1 | inactive: 12.6% | – |
| C=CCOc1ccc(C=Nc2cccc(Cl)c2)c(O)c1 | inconclusive: -7.65% | – |
| CCOC(=O)CNC(=O)c1ccc(C#CC2(O)CCCCC2)cc1 | inconclusive: 5.83% | – |
| COc1cccc(CSc2nnc(CSc3nc4nc(C)cc(C)n4n3)s2)c1 | inactive: -10% | – |
| CC1(C)C(c2ccccc2)=[N+]([O-])C2(CCCCC2=O)N1O (stereo unspecified) | inconclusive: -5.44% | – |
| CCn1cc(NC(=O)CCl)c(C)n1 | – | inconclusive: 22.4 µM [rising, partial curve] |
| Cc1nn(CCC#N)c2[nH]c(=O)cc(C(F)(F)F)c12 | inconclusive: -7.6% [at 46 µM] | – |
| Cc1ccc(S(=O)(=O)NCCSCc2ccco2)cc1 | inconclusive: 8.16% [at 46 µM] | – |
| Cc1ccccc1N1C(N)=NC(N)=NC1(C)C | inconclusive: 2.15% | – |
| O=C(c1ccc(Cl)cc1[N+](=O)[O-])N(Cc1ccccc1)Cc1ccccc1 | inactive: -8.32% | – |
| Cc1ccc(Nc2nnc(SCC(=O)Nc3cccc(S(=O)(=O)NC4=NCCCCC4)c3)s2)c(C)c1 | inconclusive: -39% | – |
| COc1ccc(CN2CCCCC2c2cccnc2)c(OC)c1C (stereo unspecified) | inactive: 0.876% | – |
| N#Cc1ccc(C(=O)OCC(=O)Nc2ccc(N3CCOCC3)cc2)cc1 | inactive: -16.9% [at 46 µM] | – |
| CCOC(=O)c1[nH]c2cc(OC)c(OC)cc2c1N | inactive: -1.48% | – |
| CCOCC(=O)Nc1nnc(C2CCCCC2)s1 | inactive: -6.2% | – |
| COc1ccc(NCc2nnc3n2CCCCC3)c(OC)c1 | inconclusive: -2.13% [at 46 µM] | – |
| COCc1[nH][nH]c(=O)c1C=Nc1ccc(C(F)(F)F)cc1 | inconclusive: 17.3% [at 9.22 µM] | – |
| O=C(O)c1cccnc1 | inconclusive: -22.1% | – |
| COc1cccc(CNC(=O)c2nnn(CC(=O)Nc3ccc(C)c(C)c3)c2N)c1 | inconclusive: 32.6% | – |

| SMILES | ratio change, negative = inhibition | Potency |
| --- | --- | --- |
| COc1ccc(CNC(=O)C(c2cccs2)N(Cc2ccco2)C(=O)Cc2cccs2)cc1 (stereo unspecified) | – | inconclusive: 35.5 µM [falling, single point] |
| CCC(=O)NNC(=O)CCC(=O)Nc1cccc(Cl)c1C | inconclusive: 4.84% [at 46 µM] | – |
| CNC(=O)C1CCC(Cn2c(=O)c3sccc3n(CC(=O)Nc3cc(F)ccc3F)c2=O)CC1 (stereo unspecified) | inconclusive: 13.2% [at 46 µM] | – |
| COc1ccc2c(c1)C(=O)[C@@H](OC(=O)NCc1ccc3c(c1)OCO3)[C@H](c1ccc(OC)c(Br)c1)O2 | inconclusive: -38.5% | – |
| Cc1oc(-c2ccccc2Cl)nc1Cn1cccc1C1=NC(c2ccccc2)CO1 (stereo unspecified) | inconclusive: -33.8% | – |
| CCCCn1nc(NC(=O)c2cccs2)c2cc3cc(OC)ccc3nc21 | – | inconclusive: 35.5 µM [falling, single point] |
| O=C(O)c1ccc2c(=O)[nH]c(CCl)nc2c1 | inconclusive: 6.54% [at 46 µM] | – |
| CC1CCc2c(C(=O)Nc3nccs3)csc2C1 (stereo unspecified) | inactive: 16.7% | – |
| Cc1cccc(N(C)C(=S)Oc2ccc3ccccc3c2)c1 | – | inconclusive: 14.1 µM [cytotoxic, single point] |
| O=C(NC(=S)N1CCCc2ccccc21)c1ccco1 | inactive: -13.3% [at 46 µM] | – |
| COc1cc(C2c3c(-c4cc(C)cc(C)c4O)n[nH]c3C(=O)N2CCCO)cc(OC)c1OC (stereo unspecified) | inconclusive: 4.04% | – |
| CCOC(=O)C1CCCN(Cc2ccccc2C)C1 (stereo unspecified) | inactive: 2.29% | – |
| CCN(CC)S(=O)(=O)c1ccc(N2CCOCC2)c(NC(=O)CCC2CCCCC2)c1 | inactive: -12.9% | – |
| O=C(O)c1ccc2c(=O)n3c(nc2c1)/C(=C/c1ccccc1C(F)(F)F)CCCC3 | inconclusive: 4.4% | – |
| CCc1ccccc1OCC(=O)OCC(=O)c1c(N)n(C)c(=O)n(C)c1=O | inconclusive: 13.2% [at 46 µM] | – |
| CCOC(=O)N1CCC(NC(=O)c2ccc3c(Cl)c4c(nc3c2)CCCC4)CC1 | inconclusive: -61.3% | – |
| O=C(NCC1CCCO1)C(c1ccncc1)N(Cc1cccs1)C(=O)Cn1nnc(-c2ccc(F)cc2)n1 (stereo unspecified) | inconclusive: -1.99% [at 46 µM] | – |
| C(=N\Nc1nc2ccccc2[nH]1)/c1cccs1 | inactive: -2.24% | – |
| Cc1oc2ncn(C)c(=O)c2c1C(=O)NCCCN(Cc1ccccc1)C(C)C | inactive: 8.1% [at 46 µM] | – |
| O=C(COC(=O)c1n[nH]c2ccccc12)NC(=O)NCc1ccco1 | inconclusive: 12.9% | – |

3 entries already listed, ordered by number of heavy atoms, low to high:

| SMILES | ratio change, negative = inhibition | Potency |
| --- | --- | --- |
| O=C(O)c1ccc2c(=O)[nH]c(CCl)nc2c1 | inconclusive: 6.54% [at 46 µM] | – |
| Cc1cccc(N(C)C(=S)Oc2ccc3ccccc3c2)c1 | – | inconclusive: 14.1 µM [cytotoxic, single point] |
| COc1cc(C2c3c(-c4cc(C)cc(C)c4O)n[nH]c3C(=O)N2CCCO)cc(OC)c1OC (stereo unspecified) | inconclusive: 4.04% | – |

— PubChem BioAssay AID1487 (National Center for Advancing Translational Sciences (NCATS), 2009)
